Test results reported in PubChem BioAssay AID256 (DTP/NCI, 2004).
The list shows only some results of the screen, not a fair sample: it gathers tests that were run many times, whatever their T/C, doses with no T/C, and many T/C values between a quarter and a half above the control. Other doses and runs of a compound stand elsewhere. T/C gives the treated animals as a percentage of the vehicle group. Some entries give survivors of the animals treated and no T/C: the source holds a T/C of zero for them, seemingly a mark for toxic or unscored doses. Some survivor counts are full or nearly so, which does not show that the dose was tolerated: survival well below the control is almost never listed, so the zero probably covers shortened survival too. Survivors were counted at the toxicity check, usually on the fifth day, unless a day is given; later deaths do not show. Schedule codes are those of the source, read here as Q, the interval in days (D) or hours (H), X, the number of doses. Some entries were tested several times; the results are listed from low to high. For survival time, this PubChem deposit counts one and a half times the control or more as active, and values a quarter to a half above the control carry no call in these data; other NCI protocols may use other cut-offs. Some T/C values carry the count of animals alive at the toxicity check (mostly the fifth day); without a count, all were alive then. Counts like (3×) stand for listed records that agree. Some schedules carry Z or #; the key to these is not given.

Tested on: CD2F1 mice, L1210 leukemia ip, survival T/C
Assay: NCI In Vivo Anticancer Drug Screen. Data for tumor model L1210 Leukemia (intraperitoneal) in CD2F1 (CDF1) mice
Settings: higher T/C = longer survival
Summary of the method: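 Compound-dosed mice with transplantable tumor versus matched vehicle controls; endpoint ratio T/C reported.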

[1] = T/C endpoint: mean survival time, dose: 320.0 mg/kg/injection, schedule: Q01DX001 (ip), vehicle: alkali diluted with water

S=c1nc[nH]c2nc[nH]c12
survivor count (T/C endpoint: mean survival time, dose: 160.0 mg/kg/injection, schedule: Q01DX009 (ip), vehicle: other): 5 of 6 | T/C (T/C endpoint: mean survival time, dose: 160.0 mg/kg/injection, schedule: Q04DX002 (ip), vehicle: saline): 144 % of control | T/C (T/C endpoint: mean survival time, dose: 180.0 mg/kg/injection, schedule: Q04DX003 (ip), vehicle: saline): 147 % of control | T/C (T/C endpoint: mean survival time, dose: 180.0 mg/kg/injection, schedule: Q## X006 (ip), vehicle: saline): 146 % of control | T/C (T/C endpoint: mean survival time, dose: 200.0 mg/kg/injection, schedule: Q04DX003 (ip), vehicle: alkali diluted with saline): 141, 144, 156 [4 of 6 alive], 157 % of control | T/C (T/C endpoint: mean survival time, dose: 225.0 mg/kg/injection, schedule: Q04DX003 (ip), vehicle: alkali diluted with saline): 126 % of control | T/C (T/C endpoint: mean survival time, dose: 250.0 mg/kg/injection, schedule: Q04DX003 (ip), vehicle: alkali diluted with saline): 128 % of control | T/C (T/C endpoint: mean survival time, dose: 255.0 mg/kg/injection, schedule: Q01DX001 (ip), vehicle: alkali diluted with saline): 130 % of control [8 of 10 alive] | T/C (T/C endpoint: mean survival time, dose: 270.0 mg/kg/injection, schedule: Q04DX003 (ip), vehicle: saline): 140 % of control | T/C (T/C endpoint: mean survival time, dose: 270.0 mg/kg/injection, schedule: Q## X002 (ip), vehicle: saline): 147 % of control [9 of 10 alive] | T/C [1]: 132 % of control [4 of 6 alive] | survivor count [1]: 0 of 3 | survivor count (T/C endpoint: mean survival time, dose: 320.0 mg/kg/injection, schedule: Q01DX005 (ip), vehicle: alkali diluted with water): 1 of 6 | survivor count (T/C endpoint: mean survival time, dose: 380.0 mg/kg/injection, schedule: Q01DX001 (ip), vehicle: alkali diluted with saline): 0 of 10 | survivor count (T/C endpoint: mean survival time, dose: 400.0 mg/kg/injection, schedule: Q04DX003 (ip), vehicle: alkali diluted with saline): 0 of 6 and 3 of 6 | survivor count (T/C endpoint: mean survival time, dose: 400.0 mg/kg/injection, schedule: Q04DX003 (ip), vehicle: alkali diluted with water): 2 of 6 | survivor count (T/C endpoint: mean survival time, dose: 416.85 mg/kg/injection, schedule: Q04DX003 (ip), vehicle: alkali diluted with saline): 10 of 10 | survivor count (T/C endpoint: mean survival time, dose: 450.0 mg/kg/injection, schedule: Q04DX003 (ip), vehicle: alkali diluted with saline): 0 of 8 | survivor count (T/C endpoint: mean survival time, dose: 607.0 mg/kg/injection, schedule: Q04DX003 (ip), vehicle: saline with Tween-80): 6 of 6 | survivor count (T/C endpoint: mean survival time, dose: 920.0 mg/kg/injection, schedule: Q04DX003 (ip), vehicle: saline with Tween-80): 5 of 6 | T/C (T/C endpoint: median survival time, dose: 20.0 mg/kg/injection, schedule: Q01DX005 (ip), vehicle: Klucel (hydroxypropylcellulose) (HPC)): 135 % of control | T/C (T/C endpoint: median survival time, dose: 20.0 mg/kg/injection, schedule: Q01DX005 (ip), vehicle: alkali diluted with saline): 111, 112, 116, 123, 149, 150, 151 % of control | T/C (T/C endpoint: median survival time, dose: 20.0 mg/kg/injection, schedule: Q01DX005 (ip), vehicle: alkali diluted with water, evaluated on day 20): 105, 109, 118, 134, 141, 144, 145 % of control | T/C (T/C endpoint: median survival time, dose: 20.0 mg/kg/injection, schedule: Q01DX005 (ip), vehicle: alkali diluted with water, evaluated on day 30): 106, 109 (2×), 110 (2×), 111 [5 of 6 alive], 112 (2×), 114 (3×), 116 (5×), 118 (4×), 119, 120, 121 (3×), 122 (2×), 123 (2×), 128 (2×), 134, 135, 139 % of control | T/C (T/C endpoint: median survival time, dose: 20.0 mg/kg/injection, schedule: Q01DX005 (ip), vehicle: alkali diluted with water, evaluated on day 35): 118 % of control | T/C (T/C endpoint: median survival time, dose: 20.0 mg/kg/injection, schedule: Q01DX005 (ip), vehicle: saline): 106, 125 (2×), 135, 143, 191 % of control | T/C (T/C endpoint: median survival time, dose: 20.0 mg/kg/injection, schedule: Q01DX009 (ip), vehicle: water, evaluated on day 5): 134 % of control | T/C (T/C endpoint: median survival time, dose: 20.0 mg/kg/injection, schedule: Q01DX009 (ip), vehicle: water, evaluated on day 33): 134 % of control | T/C (T/C endpoint: median survival time, dose: 25.0 mg/kg/injection, schedule: Q01DX005 (ip), vehicle: alkali diluted with water): 126 % of control | T/C (T/C endpoint: median survival time, dose: 30.0 mg/kg/injection, schedule: Q01DX009 (ip), vehicle: alkali diluted with saline, evaluated on day 5): 129 % of control | T/C (T/C endpoint: median survival time, dose: 30.0 mg/kg/injection, schedule: Q01DX009 (ip), vehicle: alkali diluted with saline, evaluated on day 45): 126 % of control | T/C (T/C endpoint: median survival time, dose: 40.0 mg/kg/injection, schedule: Q01DX005 (ip), vehicle: Klucel (hydroxypropylcellulose) (HPC)): 140 % of control | T/C (T/C endpoint: median survival time, dose: 40.0 mg/kg/injection, schedule: Q01DX005 (ip), vehicle: alkali diluted with saline): 116, 118, 125, 130, 176, 182 [5 of 6 alive], 204 % of control | T/C (T/C endpoint: median survival time, dose: 40.0 mg/kg/injection, schedule: Q01DX005 (ip), vehicle: alkali diluted with water, evaluated on day 20): 116, 136, 139, 141, 149, 150, 156 % of control | T/C (T/C endpoint: median survival time, dose: 40.0 mg/kg/injection, schedule: Q01DX005 (ip), vehicle: alkali diluted with water, evaluated on day 30): 112, 117 (2×), 118 (2×), 119, 120, 121, 125 [5 of 6 alive], 128, 129, 130, 131, 134, 135, 136 (3×), 136 [5 of 6 alive], 137 (3×), 138, 139 (2×), 140, 141 (2×), 142, 146 (2×), 148, 152, 166 % of control
